Data taken from article PMC11598967.
Results are given in words; binding and its absence hold for the method and conditions named. In cells and extracts the contact can be indirect. Some results given as binding are weak or reduced against the parent protein; the word gives no strength.

Amino acid sequences for entries named in this document (tags omitted).
UniProt P49951: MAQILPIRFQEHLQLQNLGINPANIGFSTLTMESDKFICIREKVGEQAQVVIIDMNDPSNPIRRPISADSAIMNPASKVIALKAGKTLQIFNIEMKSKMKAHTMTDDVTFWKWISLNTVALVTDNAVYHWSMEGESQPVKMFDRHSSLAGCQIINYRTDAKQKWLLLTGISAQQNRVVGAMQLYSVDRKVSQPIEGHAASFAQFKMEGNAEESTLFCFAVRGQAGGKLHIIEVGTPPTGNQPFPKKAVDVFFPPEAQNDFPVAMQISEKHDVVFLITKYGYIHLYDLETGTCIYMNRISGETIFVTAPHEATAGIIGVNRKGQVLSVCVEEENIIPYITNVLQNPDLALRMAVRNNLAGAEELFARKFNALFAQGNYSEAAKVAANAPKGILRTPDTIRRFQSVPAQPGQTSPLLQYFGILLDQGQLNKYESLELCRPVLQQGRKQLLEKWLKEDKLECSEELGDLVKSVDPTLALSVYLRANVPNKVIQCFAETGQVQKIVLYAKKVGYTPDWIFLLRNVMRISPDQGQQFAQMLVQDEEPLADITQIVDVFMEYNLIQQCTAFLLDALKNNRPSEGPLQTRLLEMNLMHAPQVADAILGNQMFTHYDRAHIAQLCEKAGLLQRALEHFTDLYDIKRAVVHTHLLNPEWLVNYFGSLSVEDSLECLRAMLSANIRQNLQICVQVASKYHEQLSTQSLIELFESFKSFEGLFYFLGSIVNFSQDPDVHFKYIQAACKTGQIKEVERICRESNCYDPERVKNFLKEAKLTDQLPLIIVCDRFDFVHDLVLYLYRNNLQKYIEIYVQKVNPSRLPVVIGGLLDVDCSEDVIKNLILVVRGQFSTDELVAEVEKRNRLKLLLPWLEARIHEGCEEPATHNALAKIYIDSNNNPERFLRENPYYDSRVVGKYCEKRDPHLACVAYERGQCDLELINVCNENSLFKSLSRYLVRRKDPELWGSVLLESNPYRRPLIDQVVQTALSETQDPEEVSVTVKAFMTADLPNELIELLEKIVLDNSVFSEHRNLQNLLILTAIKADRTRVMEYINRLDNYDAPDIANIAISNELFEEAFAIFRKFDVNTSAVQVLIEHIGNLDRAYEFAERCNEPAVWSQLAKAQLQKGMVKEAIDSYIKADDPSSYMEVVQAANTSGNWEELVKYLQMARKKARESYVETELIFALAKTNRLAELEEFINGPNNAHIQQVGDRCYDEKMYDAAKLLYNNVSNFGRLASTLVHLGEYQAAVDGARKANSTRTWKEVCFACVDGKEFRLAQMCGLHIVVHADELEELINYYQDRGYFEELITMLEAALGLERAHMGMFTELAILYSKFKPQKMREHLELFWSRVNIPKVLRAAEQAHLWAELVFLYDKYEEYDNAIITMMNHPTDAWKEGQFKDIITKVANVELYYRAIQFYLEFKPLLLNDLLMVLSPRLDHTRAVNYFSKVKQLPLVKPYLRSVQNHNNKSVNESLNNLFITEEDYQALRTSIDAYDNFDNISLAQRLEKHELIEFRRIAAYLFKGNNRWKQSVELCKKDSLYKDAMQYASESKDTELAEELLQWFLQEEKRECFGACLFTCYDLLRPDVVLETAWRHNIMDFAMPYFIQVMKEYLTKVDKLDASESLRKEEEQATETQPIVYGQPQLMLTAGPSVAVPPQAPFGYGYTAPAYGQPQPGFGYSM

Molecular target: Clathrin heavy chain protein (CHC) (bovine (endogenous in MDBK)) (UniProt P49951)
Assay: co-IP; endogenous proteins in MDBK cell lysate (RIPA buffer); 1 ug primary antibody (anti-HSPA4, anti-CHC or IgG) in 400 uL lysate overnight at 4 C, protein A+G agarose 3 h at 4 C, five PBS washes, Western blot

binding: binds
Substance: Heat shock cognate protein 70 (HSC70) (from UniProt P19120 1-650)
